Measured data: PubChem BioAssay AID1224828 (NIAID, 2016)
In all, the deposit lists about 17,000 reagents; this is an unselected part. 762 of all reagents (4.5%) count as active. 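Active calls include both raised and lowered p65 entry, mostly lowered; wells with fewer than 50 cells lack a z-score.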 Raw values vary from plate to plate and are shown uncorrected. Unmarked entries are inactive. A reagent listed more than once was tested more than once; the source does not tell the runs apart.

Screen: 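Find genes required for NF-kappaB p65 moving into the nucleus after LPS in mouse macrophages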 (primary screen)
Cell system: mouse RAW264.7 G9 macrophage reporter cells (GFP-p65, Tnf promoter-mCherry)
Knock-down reagent: siRNA pool against mouse genes, 100 nM
Time to read-out: 2 days siRNA transfection, then 40 min LPS before fixation
Challenge: LPS (Salmonella minnesota R595) at 10 ng/ml
Measurement: 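Microscopy ratio of nuclear to perinuclear-ring GFP-p65 signal, scaled to the plate median; gene score is the average of two replicate robust z-scores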
Direction: p65 translocation robust z-score: higher = more nuclear NF-kappaB p65 after LPS than the plate median; nuclear/cytoplasmic p65 ratio: higher = more nuclear NF-kappaB p65
Call rule: 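Active if robust z is above 3.3 (negative regulators) or below -1.56, the Tlr4 control median (positive regulators); activity score 50 or more; control wells not called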
Calls: active = hit (p65 shift raised or lowered); inactive = no clear change

no.	gene	p65 translocation robust z-score	nuclear/cytoplasmic p65 ratio, rep 1	nuclear/cytoplasmic p65 ratio, rep 2	low cell count flag
1	Or8d23	0.89	1.63	1.29	enough cells to score
2	Gpr153	-0.31	1.43	1.31	enough cells to score
3	Slamf1	-0.5	1.45	1.51	enough cells to score
4	Chchd5	1.13	1.66	1.57	enough cells to score
5	Copb2		1.5	1.71	fewer than 50 cells per well; well left out of scoring
6	Ncoa5	-1.18	1.25	1.23	enough cells to score
7	Ercc5	-0.2	1.41	1.37	enough cells to score
8	Chaf1a	0.16	1.4	1.4	enough cells to score
9	Fsaf1	-0.03	1.5	1.35	enough cells to score
10	Mrgprx1	-0.99	1.66	1.41	enough cells to score
11	Mrgprx1	-1.22	1.37	1.41	enough cells to score
12	Cdhr5	1.29	1.97	1.8	enough cells to score
13	Depdc1a	-0.64	1.47	1.22	enough cells to score
14	Cel	0.45	1.55	1.41	enough cells to score
15	Sae1		1.25	1.14	fewer than 50 cells per well; well left out of scoring
16	Mtmr2	-0.68	1.37	1.24	enough cells to score
17	Dhx58	-0.33	1.51	1.75	enough cells to score
18	Nudt22	-0.49	1.37	1.48	enough cells to score
19	Tbc1d14	-1.5	1.41	1.27	enough cells to score
20	Mpz	0.57	1.54	1.39	enough cells to score
21	Ccnq	-0.33	1.35	1.32	enough cells to score
22	H2-DMb2	0.35	1.45	1.45	enough cells to score
23	Tbcd	-0.19	1.49	1.5	enough cells to score
24	Ldb3	0.09	1.49	1.51	enough cells to score
25	Phf12	-1.45	1.18	1.13	enough cells to score
26	Cdkn2b	0.32	1.81	1.37	enough cells to score
27	Syne2	-2.61 (active)	1.08	1.23	enough cells to score
28	Il36a	-0.55	1.56	1.28	enough cells to score
29	Egr4	0.12	1.53	1.34	enough cells to score
30	Strap	2.05	1.81	1.36	enough cells to score
31	Ticam1	-1.27	1.39	1.36	enough cells to score
32	Daglb	0.25	1.49	1.28	enough cells to score
33	Myo3b	0.31	1.37	1.62	enough cells to score
34	Zfp740		1.13	1.18	fewer than 50 cells per well; well left out of scoring
35	Mecr	-0.17	1.51	1.31	enough cells to score
36	Msx3	0.62	1.92	1.65	enough cells to score
37	Zfp870	0.81	1.68	1.81	enough cells to score
38	Hacd4	1.7	1.57	1.7	enough cells to score
39	Mnat1	1.73	1.61	1.62	enough cells to score
40	Mrgprb3	1.22	2	1.76	enough cells to score
41	Keg1	1.62	1.82	1.62	enough cells to score
42	Zfp280d	-0.3	1.53	1.83	enough cells to score
43	Sgpl1	-1.39	1.19	1.12	enough cells to score
44	Ffar2		1.47	1.45	fewer than 50 cells per well; well left out of scoring
45	Lrg1	-1.67 (active)	1.54	1.22	enough cells to score
46	Slc38a4		1.17	1.24	fewer than 50 cells per well; well left out of scoring
47	Zfp811	0.6	1.82	1.62	enough cells to score
48	Or10x4		1.17	1.54	fewer than 50 cells per well; well left out of scoring
49	Tulp2	1.67	1.73	1.75	enough cells to score
50	Cep135	-0.22	1.45	1.44	enough cells to score
51	Crygf	-0.96	1.42	1.63	enough cells to score
52	Hoxb3	0.07	1.43	1.4	enough cells to score
53	4930579K19Rik		1.13	1.34	fewer than 50 cells per well; well left out of scoring
54	Has2	-0.4	1.57	1.5	enough cells to score
55	Rem2	1.81	1.63	1.45	enough cells to score
56	Kif21b	0.23	1.55	1.37	enough cells to score
57	Cdh2	-0.24	1.42	1.36	enough cells to score
58	Pafah1b1	-0.21	1.61	1.37	enough cells to score
59	Slc16a11	-1.96 (active)	1.12	1.05	enough cells to score
